These are literature values, as cited in US20240269109A1 (STICHTING MEDISCHE KLINIEK VELSEN, priority 2021, published 2024).

Chains of the proteins cited; added tags and fusions are not shown. Lines headed by an entry give the natural chain unless they say otherwise; changes in a name come on top.
UniProt Q99572: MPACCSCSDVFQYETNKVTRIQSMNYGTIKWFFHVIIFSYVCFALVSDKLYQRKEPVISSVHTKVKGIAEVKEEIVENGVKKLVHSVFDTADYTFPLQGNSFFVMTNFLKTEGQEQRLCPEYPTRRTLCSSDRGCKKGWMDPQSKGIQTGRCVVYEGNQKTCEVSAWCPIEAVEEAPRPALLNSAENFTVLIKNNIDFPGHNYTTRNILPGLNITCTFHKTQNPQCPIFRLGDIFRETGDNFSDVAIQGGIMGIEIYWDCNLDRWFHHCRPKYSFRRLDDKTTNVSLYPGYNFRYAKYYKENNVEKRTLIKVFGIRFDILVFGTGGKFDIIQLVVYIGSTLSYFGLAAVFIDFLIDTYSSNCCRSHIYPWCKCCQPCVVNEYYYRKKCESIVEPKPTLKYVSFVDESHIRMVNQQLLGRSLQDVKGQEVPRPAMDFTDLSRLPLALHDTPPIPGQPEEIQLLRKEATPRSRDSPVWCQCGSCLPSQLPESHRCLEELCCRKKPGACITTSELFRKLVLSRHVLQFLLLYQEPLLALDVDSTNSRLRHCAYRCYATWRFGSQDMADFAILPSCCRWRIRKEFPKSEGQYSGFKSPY

In the data set the target is P2X7 receptor (Homo sapiens, UniProt Q99572). Particulars: read-out: IC50 for blocking the P2X7 receptor (plasma concentration required); cited from earlier work.

pIC50: −log10 of the molar value. “And” between values parts separate entries of the source, which are not always exact repeats. Equal values may be shown once.

Take `CCN(CC)CC(=O)Nc1c(C)cccc1C` [lidocaine]: the pIC50 was 3.52 and 3.55.
